Here are results for one molecule from patent US6528618B1, “Anti-inflammatory peptides derived from C-reactive protein” (Yeda Research and Development Co. Ltd., priority 1997, dated 2003).

No constants are given. Whether binding was seen depends on the method and setting. Some entries that bind do so weakly or less than the wild type.

The target of this test is T1, human leukocyte elastase (human, UniProt P08246 30-267).
T1 construct: mature; Active enzyme purified from human neutrophils; also called hLE
T1 sequence (looked up): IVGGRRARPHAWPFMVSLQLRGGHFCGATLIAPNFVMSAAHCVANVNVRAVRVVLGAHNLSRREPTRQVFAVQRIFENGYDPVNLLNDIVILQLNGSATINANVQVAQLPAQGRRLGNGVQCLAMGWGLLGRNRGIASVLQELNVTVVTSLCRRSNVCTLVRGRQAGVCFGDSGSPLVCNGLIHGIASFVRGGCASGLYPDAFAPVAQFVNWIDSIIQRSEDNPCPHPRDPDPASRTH
The test can be described thus: incubation with enzyme, RP-HPLC degradation profile; enzyme inhibition.

B1: peptide 6 (CRP62-76) (peptide)
peptide: EILIFWSKDIGYSFT
notes: Synthetic 15-mer; also called pep6
As for B1, the binding result is recorded as “binds”.
